Results are given in words; binding and its absence hold for the method and conditions named. In cells and extracts the contact can be indirect. Some entries that bind do so weakly or less than the wild type.

Amino acid sequences for entries named in this document (tags omitted).
UniProt P20263: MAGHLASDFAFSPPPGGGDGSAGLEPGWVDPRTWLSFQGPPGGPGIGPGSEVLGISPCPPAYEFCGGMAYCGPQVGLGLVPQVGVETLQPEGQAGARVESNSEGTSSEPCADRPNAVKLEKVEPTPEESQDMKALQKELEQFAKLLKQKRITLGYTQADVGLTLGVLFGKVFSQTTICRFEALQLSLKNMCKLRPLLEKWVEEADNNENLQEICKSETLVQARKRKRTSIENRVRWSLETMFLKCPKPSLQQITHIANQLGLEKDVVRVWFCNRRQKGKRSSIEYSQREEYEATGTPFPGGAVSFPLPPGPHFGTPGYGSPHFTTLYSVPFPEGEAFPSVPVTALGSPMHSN
UniProt Q99LT0: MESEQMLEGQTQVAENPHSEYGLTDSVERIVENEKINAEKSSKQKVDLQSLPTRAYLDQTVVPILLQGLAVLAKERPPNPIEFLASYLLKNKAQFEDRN

In this test the target is OCT4 (UniProt P20263). Put plainly: co-IP; anti-OCT4 on Protein G Dynabeads, 200 ug pre-cleared nuclear extract, IP buffer with 100 mM NaCl, 3 h at 4°C; MEFs at day 4 of MKOS reprogramming with control or Smad3CA vector; blots for DPY30 and p300.

With “DPY30 (part of the MLL complex) (from UniProt Q99LT0 1-99)”, the binding result is given as “binds”.

Source of the values: article PMC5732323.
